Reference: PMC11166608

Protein sequences, listed by entry. Tags and fused reporters are not part of them. Lines headed by an entry give the natural chain unless they say otherwise; changes in a name come on top.
UniProt A0A3B5YUG0: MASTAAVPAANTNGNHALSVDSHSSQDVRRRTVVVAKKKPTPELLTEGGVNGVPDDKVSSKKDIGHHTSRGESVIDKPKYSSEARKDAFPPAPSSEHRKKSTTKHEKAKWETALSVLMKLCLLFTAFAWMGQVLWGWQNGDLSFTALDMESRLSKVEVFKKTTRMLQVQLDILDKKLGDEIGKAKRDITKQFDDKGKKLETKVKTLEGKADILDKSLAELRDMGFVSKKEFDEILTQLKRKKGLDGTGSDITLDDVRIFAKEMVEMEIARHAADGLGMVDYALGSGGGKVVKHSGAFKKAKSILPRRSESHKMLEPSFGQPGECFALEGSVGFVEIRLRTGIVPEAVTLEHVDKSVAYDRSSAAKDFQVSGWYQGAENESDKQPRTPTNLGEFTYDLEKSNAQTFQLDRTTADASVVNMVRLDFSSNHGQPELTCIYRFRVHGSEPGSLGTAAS
UniProt A0A3B6LNR2: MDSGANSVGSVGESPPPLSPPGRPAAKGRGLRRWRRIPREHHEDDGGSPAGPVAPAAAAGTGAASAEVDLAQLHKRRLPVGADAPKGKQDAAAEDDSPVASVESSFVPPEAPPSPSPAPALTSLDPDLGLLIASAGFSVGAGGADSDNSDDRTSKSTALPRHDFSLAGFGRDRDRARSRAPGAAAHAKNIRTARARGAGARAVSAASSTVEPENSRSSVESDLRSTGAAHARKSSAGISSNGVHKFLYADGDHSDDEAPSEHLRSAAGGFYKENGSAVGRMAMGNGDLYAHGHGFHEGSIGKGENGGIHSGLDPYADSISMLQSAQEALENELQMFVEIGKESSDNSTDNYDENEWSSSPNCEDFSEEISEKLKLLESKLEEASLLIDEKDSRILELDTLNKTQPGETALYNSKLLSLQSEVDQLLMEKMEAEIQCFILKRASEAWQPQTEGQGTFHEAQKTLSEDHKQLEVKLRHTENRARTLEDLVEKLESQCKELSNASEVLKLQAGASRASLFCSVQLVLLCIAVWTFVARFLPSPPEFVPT
UniProt A0A3B6C3B0: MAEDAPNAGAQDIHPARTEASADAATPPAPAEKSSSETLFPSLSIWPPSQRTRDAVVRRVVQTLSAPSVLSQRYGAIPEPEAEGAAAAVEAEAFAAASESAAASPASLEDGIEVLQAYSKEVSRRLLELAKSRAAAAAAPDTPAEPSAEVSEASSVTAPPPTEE
UniProt A0A3B6HRR1: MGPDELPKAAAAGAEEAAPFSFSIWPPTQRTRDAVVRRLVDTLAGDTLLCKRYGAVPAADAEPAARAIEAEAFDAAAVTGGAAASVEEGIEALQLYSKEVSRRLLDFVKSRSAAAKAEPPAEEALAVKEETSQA

Tests used:
[1] = target: TaWIT1 (split-ubiquitin MYTH bait) (Triticum aestivum); experiment: two-hybrid; split-ubiquitin-based membrane yeast two-hybrid (MYTH) in NMY51; bait and prey vectors; quadruple dropout/x-α-gal/2.5 mM 3AT
[2] = target: TaWPP2 (nuclear yeast two-hybrid fusion) (Triticum aestivum); experiment: two-hybrid; nuclear Gal4 yeast two-hybrid; pGBKT7 and pGADT7 fusions co-transferred into Y2H yeast; growth on quadruple dropout medium with x-α-gal
[3] = target: TaWPP1 (nuclear yeast two-hybrid fusion) (Triticum aestivum); experiment: as above
[4] = target: TaSUN2 (nuclear yeast two-hybrid fusion) (Triticum aestivum); experiment: as above
[5] = target: TaWPP2 (BiFC fusion, pn/cEYFP-TaWPP2) (Triticum aestivum); experiment: split reporter; BiFC: nEYFP and cEYFP fusions transiently co-expressed in N. benthamiana leaf epidermal cells; YFP by confocal microscopy
[6] = target: TaRanGAP2 (BiFC fusion, pn/cEYFP-TaRanGAP2) (Triticum aestivum); experiment: as above
[7] = target: TaWIT1 (BiFC fusion, pn/cEYFP-TaWIT1) (Triticum aestivum); experiment: as above

binding [1]: binds
Substance: TaSUN2 (split-ubiquitin MYTH prey) (from UniProt A0A3B5YUG0)

binding [2]: binds
binding [3]: binds
binding [4]: binds
Substance: TaWIP1 (nuclear yeast two-hybrid fusion) (from UniProt A0A3B6LNR2)

binding [5]: binds
binding [6]: binds
binding [7]: binds
Substance: TaWPP1 (BiFC fusion, pn/cEYFP-TaWPP1) (from UniProt A0A3B6C3B0)

binding [6]: binds
binding [7]: binds
Substance: TaWPP2 (BiFC fusion, pn/cEYFP-TaWPP2) (from UniProt A0A3B6HRR1)

Results are given in words; binding and its absence hold for the method and conditions named. Binding can be weak; no strength is given. For part of these data: In cells and extracts the contact can be indirect. One block for each substance: values may come before it.
